Data from the supplement of paper PMC6411743.
± gives the standard deviation of the averaged measurements. The list shows a part of the results.

Chains of the proteins cited; added tags and fusions are not shown. Lines headed by an entry give the natural chain unless they say otherwise; changes in a name come on top.
UniProt O60828: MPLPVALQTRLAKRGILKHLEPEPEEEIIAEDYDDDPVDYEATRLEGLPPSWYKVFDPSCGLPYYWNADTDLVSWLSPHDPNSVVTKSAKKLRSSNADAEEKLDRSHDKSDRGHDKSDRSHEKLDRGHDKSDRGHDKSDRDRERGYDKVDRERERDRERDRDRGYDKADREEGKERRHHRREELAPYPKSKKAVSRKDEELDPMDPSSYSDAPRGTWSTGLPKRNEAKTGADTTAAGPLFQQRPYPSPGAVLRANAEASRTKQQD
UniProt Q9UBE0: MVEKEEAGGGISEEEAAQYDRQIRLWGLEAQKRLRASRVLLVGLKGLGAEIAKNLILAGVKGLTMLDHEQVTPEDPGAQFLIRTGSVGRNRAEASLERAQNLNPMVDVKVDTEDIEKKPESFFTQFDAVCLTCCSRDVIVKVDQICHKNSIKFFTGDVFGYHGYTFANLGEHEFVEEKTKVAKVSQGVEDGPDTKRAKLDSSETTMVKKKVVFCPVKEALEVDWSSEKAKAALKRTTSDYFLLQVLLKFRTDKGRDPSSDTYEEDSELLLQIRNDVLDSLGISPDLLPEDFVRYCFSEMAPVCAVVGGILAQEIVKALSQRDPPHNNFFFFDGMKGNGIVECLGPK
UniProt O00411: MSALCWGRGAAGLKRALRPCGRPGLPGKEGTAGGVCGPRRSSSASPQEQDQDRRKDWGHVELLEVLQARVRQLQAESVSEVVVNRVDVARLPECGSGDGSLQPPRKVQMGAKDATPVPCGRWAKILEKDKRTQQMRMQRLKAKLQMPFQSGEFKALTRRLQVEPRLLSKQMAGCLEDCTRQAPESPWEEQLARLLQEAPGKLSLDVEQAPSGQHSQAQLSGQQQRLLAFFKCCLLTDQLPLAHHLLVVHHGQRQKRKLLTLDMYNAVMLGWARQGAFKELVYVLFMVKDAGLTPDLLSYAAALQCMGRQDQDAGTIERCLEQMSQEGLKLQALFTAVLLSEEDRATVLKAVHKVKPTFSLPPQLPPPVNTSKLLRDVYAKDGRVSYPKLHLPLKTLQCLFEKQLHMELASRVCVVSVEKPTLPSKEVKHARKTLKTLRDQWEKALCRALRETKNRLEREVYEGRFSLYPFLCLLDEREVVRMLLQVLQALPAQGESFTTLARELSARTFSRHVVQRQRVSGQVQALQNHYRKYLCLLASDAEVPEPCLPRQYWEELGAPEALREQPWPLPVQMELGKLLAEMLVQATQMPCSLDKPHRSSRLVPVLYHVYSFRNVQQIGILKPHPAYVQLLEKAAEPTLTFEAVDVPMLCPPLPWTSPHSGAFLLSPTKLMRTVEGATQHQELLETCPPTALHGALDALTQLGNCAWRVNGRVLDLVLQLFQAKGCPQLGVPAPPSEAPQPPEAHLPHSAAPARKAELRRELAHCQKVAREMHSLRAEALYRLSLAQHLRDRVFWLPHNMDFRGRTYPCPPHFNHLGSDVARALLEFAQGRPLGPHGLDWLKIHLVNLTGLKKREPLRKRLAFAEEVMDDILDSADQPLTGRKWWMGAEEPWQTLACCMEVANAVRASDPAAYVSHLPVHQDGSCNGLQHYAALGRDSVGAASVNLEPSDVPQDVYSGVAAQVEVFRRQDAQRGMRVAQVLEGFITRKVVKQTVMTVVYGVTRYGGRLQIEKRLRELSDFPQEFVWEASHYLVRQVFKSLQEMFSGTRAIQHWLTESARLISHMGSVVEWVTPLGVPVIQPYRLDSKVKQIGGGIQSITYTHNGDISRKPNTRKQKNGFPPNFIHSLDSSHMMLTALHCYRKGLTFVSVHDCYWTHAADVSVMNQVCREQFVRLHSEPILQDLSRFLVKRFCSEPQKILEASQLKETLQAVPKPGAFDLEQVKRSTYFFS
UniProt O60293: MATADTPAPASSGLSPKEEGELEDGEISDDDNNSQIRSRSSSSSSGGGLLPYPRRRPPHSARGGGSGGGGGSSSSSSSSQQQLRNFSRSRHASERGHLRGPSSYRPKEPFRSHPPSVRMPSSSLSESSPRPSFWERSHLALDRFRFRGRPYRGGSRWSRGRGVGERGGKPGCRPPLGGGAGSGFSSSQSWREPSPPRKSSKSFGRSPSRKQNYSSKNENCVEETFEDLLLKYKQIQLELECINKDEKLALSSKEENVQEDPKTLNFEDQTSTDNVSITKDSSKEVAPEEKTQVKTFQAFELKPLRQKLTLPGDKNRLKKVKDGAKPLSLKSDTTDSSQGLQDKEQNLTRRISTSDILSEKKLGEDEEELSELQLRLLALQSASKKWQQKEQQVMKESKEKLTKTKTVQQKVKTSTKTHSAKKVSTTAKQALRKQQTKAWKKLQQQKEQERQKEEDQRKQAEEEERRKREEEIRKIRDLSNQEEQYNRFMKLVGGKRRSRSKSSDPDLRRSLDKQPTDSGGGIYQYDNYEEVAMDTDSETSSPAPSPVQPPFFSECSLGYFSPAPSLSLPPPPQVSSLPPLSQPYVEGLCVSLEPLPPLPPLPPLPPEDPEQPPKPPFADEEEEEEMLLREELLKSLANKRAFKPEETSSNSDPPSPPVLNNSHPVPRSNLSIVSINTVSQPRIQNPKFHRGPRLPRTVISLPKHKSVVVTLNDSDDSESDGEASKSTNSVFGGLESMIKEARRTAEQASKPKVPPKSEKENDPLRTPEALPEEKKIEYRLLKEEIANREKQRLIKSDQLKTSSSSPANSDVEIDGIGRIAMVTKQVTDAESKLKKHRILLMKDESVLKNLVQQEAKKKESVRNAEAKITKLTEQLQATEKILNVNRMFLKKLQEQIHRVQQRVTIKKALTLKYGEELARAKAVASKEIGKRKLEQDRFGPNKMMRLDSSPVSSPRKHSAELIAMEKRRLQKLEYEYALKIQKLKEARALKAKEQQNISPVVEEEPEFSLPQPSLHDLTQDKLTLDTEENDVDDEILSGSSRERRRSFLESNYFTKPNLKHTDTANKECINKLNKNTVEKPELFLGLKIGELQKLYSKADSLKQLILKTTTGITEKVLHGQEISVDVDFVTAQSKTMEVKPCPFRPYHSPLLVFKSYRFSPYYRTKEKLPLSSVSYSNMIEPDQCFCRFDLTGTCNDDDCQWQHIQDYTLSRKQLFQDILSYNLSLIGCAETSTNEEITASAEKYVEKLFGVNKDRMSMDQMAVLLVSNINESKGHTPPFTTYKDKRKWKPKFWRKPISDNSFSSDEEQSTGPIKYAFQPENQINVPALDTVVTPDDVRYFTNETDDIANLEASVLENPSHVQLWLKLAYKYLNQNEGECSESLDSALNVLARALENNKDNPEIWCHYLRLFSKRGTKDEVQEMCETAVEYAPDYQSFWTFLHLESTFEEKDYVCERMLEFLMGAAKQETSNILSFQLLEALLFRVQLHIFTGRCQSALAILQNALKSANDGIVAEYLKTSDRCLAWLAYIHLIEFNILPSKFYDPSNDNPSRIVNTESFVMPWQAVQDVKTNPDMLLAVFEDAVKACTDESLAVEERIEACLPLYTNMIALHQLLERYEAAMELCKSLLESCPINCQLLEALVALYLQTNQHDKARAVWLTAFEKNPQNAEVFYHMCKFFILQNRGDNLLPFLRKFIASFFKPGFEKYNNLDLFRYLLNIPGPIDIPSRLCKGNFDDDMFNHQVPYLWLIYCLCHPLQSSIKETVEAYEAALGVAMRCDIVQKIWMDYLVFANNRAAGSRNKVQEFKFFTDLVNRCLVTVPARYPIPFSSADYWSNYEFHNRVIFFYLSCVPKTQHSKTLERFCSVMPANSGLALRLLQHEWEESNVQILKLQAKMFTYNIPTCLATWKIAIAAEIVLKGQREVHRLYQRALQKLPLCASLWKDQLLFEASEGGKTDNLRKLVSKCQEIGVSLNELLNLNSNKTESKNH
UniProt O60566, whole entry: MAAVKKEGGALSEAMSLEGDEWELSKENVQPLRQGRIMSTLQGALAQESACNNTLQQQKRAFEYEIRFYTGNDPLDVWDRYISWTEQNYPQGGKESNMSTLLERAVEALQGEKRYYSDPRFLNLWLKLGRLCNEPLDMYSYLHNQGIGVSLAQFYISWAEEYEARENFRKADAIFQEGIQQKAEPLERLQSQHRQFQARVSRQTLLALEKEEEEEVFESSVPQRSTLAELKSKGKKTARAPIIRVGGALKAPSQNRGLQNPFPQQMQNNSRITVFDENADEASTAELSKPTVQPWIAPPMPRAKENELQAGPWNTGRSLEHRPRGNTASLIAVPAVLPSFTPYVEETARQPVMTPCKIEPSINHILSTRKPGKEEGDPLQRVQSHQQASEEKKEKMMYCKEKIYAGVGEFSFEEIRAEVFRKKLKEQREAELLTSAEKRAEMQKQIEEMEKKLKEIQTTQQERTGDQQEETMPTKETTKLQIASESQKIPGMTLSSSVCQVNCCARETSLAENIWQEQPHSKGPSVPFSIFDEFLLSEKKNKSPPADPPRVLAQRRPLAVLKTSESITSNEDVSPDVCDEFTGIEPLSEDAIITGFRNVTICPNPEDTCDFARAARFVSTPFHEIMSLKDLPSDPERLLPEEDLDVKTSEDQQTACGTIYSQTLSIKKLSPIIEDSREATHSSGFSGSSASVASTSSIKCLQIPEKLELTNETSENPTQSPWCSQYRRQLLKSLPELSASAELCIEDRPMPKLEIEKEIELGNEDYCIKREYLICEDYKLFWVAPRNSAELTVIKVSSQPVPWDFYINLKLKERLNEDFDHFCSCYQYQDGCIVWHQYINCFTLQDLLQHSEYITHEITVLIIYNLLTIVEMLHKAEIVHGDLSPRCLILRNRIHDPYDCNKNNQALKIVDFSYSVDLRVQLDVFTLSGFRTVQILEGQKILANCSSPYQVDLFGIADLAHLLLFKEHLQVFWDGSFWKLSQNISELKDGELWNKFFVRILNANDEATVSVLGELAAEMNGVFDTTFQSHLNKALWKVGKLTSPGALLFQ
UniProt O15117, whole entry: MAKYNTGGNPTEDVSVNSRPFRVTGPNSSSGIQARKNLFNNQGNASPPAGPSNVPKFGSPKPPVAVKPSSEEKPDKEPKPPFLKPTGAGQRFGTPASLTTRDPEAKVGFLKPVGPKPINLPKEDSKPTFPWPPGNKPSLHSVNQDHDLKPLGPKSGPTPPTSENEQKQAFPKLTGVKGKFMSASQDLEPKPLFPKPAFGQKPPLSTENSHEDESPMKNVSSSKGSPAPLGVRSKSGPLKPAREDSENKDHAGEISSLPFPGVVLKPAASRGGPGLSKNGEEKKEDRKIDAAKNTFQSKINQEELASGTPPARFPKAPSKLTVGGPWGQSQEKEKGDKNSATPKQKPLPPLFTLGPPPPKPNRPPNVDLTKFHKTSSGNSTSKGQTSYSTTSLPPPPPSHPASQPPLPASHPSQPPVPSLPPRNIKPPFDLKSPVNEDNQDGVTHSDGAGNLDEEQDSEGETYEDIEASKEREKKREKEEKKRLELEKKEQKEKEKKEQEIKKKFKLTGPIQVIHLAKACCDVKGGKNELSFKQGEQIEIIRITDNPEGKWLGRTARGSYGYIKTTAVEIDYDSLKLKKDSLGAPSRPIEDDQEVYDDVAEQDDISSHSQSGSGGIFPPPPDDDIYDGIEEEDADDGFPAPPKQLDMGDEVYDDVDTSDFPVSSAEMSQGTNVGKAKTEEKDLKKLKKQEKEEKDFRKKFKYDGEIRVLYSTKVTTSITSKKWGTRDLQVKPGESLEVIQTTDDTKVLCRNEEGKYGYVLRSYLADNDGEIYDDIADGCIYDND
UniProt O43633: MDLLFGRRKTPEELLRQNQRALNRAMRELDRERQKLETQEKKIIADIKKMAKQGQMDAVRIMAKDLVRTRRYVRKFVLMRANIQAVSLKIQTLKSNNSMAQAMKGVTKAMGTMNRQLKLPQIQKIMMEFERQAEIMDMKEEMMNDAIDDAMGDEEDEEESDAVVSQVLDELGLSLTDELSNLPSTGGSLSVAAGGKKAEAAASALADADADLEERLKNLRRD
UniProt O43181, whole entry: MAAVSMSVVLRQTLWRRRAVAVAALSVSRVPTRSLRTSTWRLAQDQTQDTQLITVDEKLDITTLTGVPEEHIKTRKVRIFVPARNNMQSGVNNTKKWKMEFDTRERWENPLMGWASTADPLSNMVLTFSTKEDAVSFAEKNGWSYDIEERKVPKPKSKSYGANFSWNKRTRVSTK
UniProt O00401, whole entry: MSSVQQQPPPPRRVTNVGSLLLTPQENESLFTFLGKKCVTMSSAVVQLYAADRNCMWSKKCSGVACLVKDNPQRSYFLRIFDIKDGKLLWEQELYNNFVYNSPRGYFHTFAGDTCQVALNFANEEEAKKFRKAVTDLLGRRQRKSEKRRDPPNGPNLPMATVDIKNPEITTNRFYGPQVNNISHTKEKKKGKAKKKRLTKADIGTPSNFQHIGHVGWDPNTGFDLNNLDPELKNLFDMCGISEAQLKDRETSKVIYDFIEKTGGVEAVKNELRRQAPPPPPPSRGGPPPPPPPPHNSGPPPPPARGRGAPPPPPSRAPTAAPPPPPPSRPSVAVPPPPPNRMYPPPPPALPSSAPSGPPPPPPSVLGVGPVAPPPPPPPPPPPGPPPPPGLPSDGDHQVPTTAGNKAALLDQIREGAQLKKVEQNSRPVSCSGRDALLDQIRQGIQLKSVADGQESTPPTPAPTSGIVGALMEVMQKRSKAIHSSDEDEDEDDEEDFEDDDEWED

Compound: Nc1nc2c(ncn2[C@@H]2O[C@H](COP(=O)(O)OP(=O)(O)OP(=O)(O)O)[C@@H](O)[C@H]2O)c(=O)[nH]1 [guanosine triphosphate]
Test: NP40-soluble protein abundance relative to vehicle (solubility fold change) (ratio); higher = more soluble protein in presence of GTP
Method in brief: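 Across three independent experiments, values are fold changes against the detergent-processed vehicle for each replicate, based on vsn-normalised intensities. The samples were Jurkat crude lysate treated with eight concentrations (0.1 to 10 mM) for 10 min at room temperature and then 3 min at 37 °C. Lysate was solubilised with 0.8% NP40 and benzonase, ultracentrifuged, and the supernatant analysed by TMT-labelled LC-MS/MS.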

Target	NP40-soluble protein abundance (concentration: 0.1mM)	NP40-soluble protein abundance (concentration: 0.5mM)	NP40-soluble protein abundance (concentration: 1mM)	NP40-soluble protein abundance (concentration: 2mM)	NP40-soluble protein abundance (concentration: 4mM)	NP40-soluble protein abundance (concentration: 6mM)	NP40-soluble protein abundance (concentration: 8mM)	NP40-soluble protein abundance (concentration: 10mM)
KIF1C (UniProt O43896)	1.02 ± 0.13	1.03 ± 0.061	0.998 ± 0.04	0.973 ± 0.033	0.928 ± 0.12	0.994 ± 0.017	0.959 ± 0.018	0.8934 ± 0.0057
PSMD12 (UniProt O00232)	1.04 ± 0.075	1.06 ± 0.11	1.01 ± 0.1	1.02 ± 0.13	1.02 ± 0.11	1.03 ± 0.14	0.991 ± 0.12	0.96 ± 0.13
UniProt O60828 and related entries	0.966 ± 0.1	0.993 ± 0.11	1.06 ± 0.11	1.02 ± 0.15	1.03 ± 0.13	1.1 ± 0.099	1.12 ± 0.057	1.16 ± 0.1
UniProt O14647 and related entries	1.09 ± 0.07	1.05 ± 0.066	1.25 ± 0.088	1.23 ± 0.054	1.34 ± 0.1	1.47 ± 0.092	1.56 ± 0.22	1.68 ± 0.23
UniProt O15020 and related entries	0.991 ± 0.063	0.991 ± 0.079	1.03 ± 0.076	1 ± 0.13	1 ± 0.082	1.02 ± 0.13	1.06 ± 0.043	1.06 ± 0.076
PFDN6 (UniProt O15212)	0.904 ± 0.071	0.919 ± 0.033	0.951 ± 0.039	0.903 ± 0.046	0.889 ± 0.039	0.933 ± 0.033	0.911 ± 0.084	0.911 ± 0.029
M0QYP2 and related entries (UniProt Q9UBE0)	0.999 ± 0.04	1 ± 0.041	0.943 ± 0.039	0.923 ± 0.057	0.9 ± 0.069	0.91 ± 0.056	0.896 ± 0.045	0.87 ± 0.069
UniProt O00422 and related entries	1.05 ± 0.085	1.16 ± 0.14	1.27 ± 0.24	1.27 ± 0.16	1.2 ± 0.35	1.1 ± 0.31	1.13 ± 0.36	1.16 ± 0.39
POLRMT (UniProt O00411)	1.02 ± 0.11	1.04 ± 0.039	0.998 ± 0.063	1.06 ± 0.11	1.01 ± 0.074	0.946 ± 0.1	0.95 ± 0.036	0.966 ± 0.069
UniProt O14920	1.022 ± 0.0088	0.9963 ± 0.0081	0.935 ± 0.015	0.944 ± 0.03	0.949 ± 0.024	0.934 ± 0.032	0.913 ± 0.017	0.896 ± 0.027
OGT (UniProt O15294)	0.975 ± 0.022	1 ± 0.013	0.97 ± 0.011	0.958 ± 0.027	0.958 ± 0.012	0.96 ± 0.015	0.937 ± 0.029	0.927 ± 0.014
UniProt O60293 and related entries	0.995 ± 0.041	1.02 ± 0.046	1.08 ± 0.08	1.1 ± 0.097	1.12 ± 0.1	1.13 ± 0.095	1.16 ± 0.096	1.17 ± 0.12
DENR (UniProt O43583)	0.841 ± 0.046	0.805 ± 0.045	0.91 ± 0.046	0.862 ± 0.062	0.861 ± 0.054	0.861 ± 0.082	0.818 ± 0.1	0.863 ± 0.042
UniProt O60566 and related entries	0.992 ± 0.049	0.994 ± 0.011	0.944 ± 0.026	0.946 ± 0.02	0.945 ± 0.032	0.941 ± 0.049	0.945 ± 0.028	0.912 ± 0.015
UniProt O43670-2	1.01 ± 0.048	1.08 ± 0.072	1.1 ± 0.013	1.13 ± 0.068	1.12 ± 0.068	1.17 ± 0.079	1.18 ± 0.051	1.22 ± 0.066
M0QYH2 and related entries (UniProt Q96T60)	1.02 ± 0.03	1.08 ± 0.05	1.1 ± 0.034	1.13 ± 0.08	1.18 ± 0.056	1.23 ± 0.06	1.25 ± 0.1	1.26 ± 0.047
KIN (UniProt O60870)	0.9988 ± 0.0042	0.993 ± 0.013	0.9497 ± 0.0058	0.929 ± 0.029	0.916 ± 0.021	0.908 ± 0.024	0.9015 ± 0.007	0.885 ± 0.053
SLC16A7 (UniProt O60669)	1.09 ± 0.034	0.98 ± 0.24	1.143 ± 0.0046	1.06 ± 0.15	1.1 ± 0.079	0.966 ± 0.15	1.12 ± 0.089	1.05 ± 0.16
UniProt O15117-2|O15117-3|O15117	0.931 ± 0.05	0.951 ± 0.063	0.941 ± 0.077	0.898 ± 0.11	0.858 ± 0.11	0.896 ± 0.11	0.91 ± 0.056	0.912 ± 0.083
CHMP2A (UniProt O43633)	0.864 ± 0.033	0.865 ± 0.028	0.997 ± 0.038	0.9971 ± 0.0099	0.979 ± 0.05	0.998 ± 0.037	0.901 ± 0.16	1 ± 0.061
M0QYA2 and related entries (UniProt Q9NWS0)	0.987 ± 0.018	0.966 ± 0.029	0.979 ± 0.041	1.06 ± 0.037	1.07 ± 0.092	1.02 ± 0.057	1.01 ± 0.061	1.06 ± 0.051
ARPC5 (UniProt O15511)	0.864 ± 0.14	0.85 ± 0.08	1.09 ± 0.22	1.07 ± 0.13	1.03 ± 0.14	1.05 ± 0.096	0.999 ± 0.14	1.17 ± 0.24
NDUFS4 (UniProt O43181)	1 ± 0.029	1.047 ± 0.0028	1.08 ± 0.053	1.12 ± 0.1	1.09 ± 0.12	1.1 ± 0.12	1.14 ± 0.18	1.1 ± 0.15
WASL (UniProt O00401)	0.927 ± 0.14	0.981 ± 0.15	0.943 ± 0.14	0.981 ± 0.17	0.921 ± 0.17	0.976 ± 0.15	0.906 ± 0.16	1.05 ± 0.16
UniProt O60504-2|O60504	1 ± 0.034	0.965 ± 0.037	0.931 ± 0.013	0.914 ± 0.022	0.921 ± 0.065	0.923 ± 0.079	0.905 ± 0.069	0.91 ± 0.08
UniProt O14773 and related entries	0.972 ± 0.072	0.91 ± 0.053	0.96 ± 0.034	0.973 ± 0.05	1.03 ± 0.014	1.01 ± 0.065	0.995 ± 0.094	1.02 ± 0.029
KPNA6 (UniProt O60684)	1.01 ± 0.04	1.02 ± 0.019	1.01 ± 0.019	1.01 ± 0.023	0.996 ± 0.021	0.984 ± 0.029	0.998 ± 0.051	1.01 ± 0.044
UniProt O43913 and related entries	1.07 ± 0.04	1.12 ± 0.079	0.993 ± 0.075	1 ± 0.078	1.01 ± 0.06	0.982 ± 0.013	1 ± 0.038	1.01 ± 0.074

Taken from the listing for reference:
Target	NP40-soluble protein abundance (concentration: 0.1mM)	NP40-soluble protein abundance (concentration: 0.5mM)	NP40-soluble protein abundance (concentration: 1mM)	NP40-soluble protein abundance (concentration: 2mM)	NP40-soluble protein abundance (concentration: 4mM)	NP40-soluble protein abundance (concentration: 6mM)	NP40-soluble protein abundance (concentration: 8mM)	NP40-soluble protein abundance (concentration: 10mM)
PSMD12 (UniProt O00232)	1.04 ± 0.075	1.06 ± 0.11	1.01 ± 0.1	1.02 ± 0.13	1.02 ± 0.11	1.03 ± 0.14	0.991 ± 0.12	0.96 ± 0.13
UniProt O60828 and related entries	0.966 ± 0.1	0.993 ± 0.11	1.06 ± 0.11	1.02 ± 0.15	1.03 ± 0.13	1.1 ± 0.099	1.12 ± 0.057	1.16 ± 0.1
